At least one compound was matched to its structure with a doubt left.
Test system: carrageenan model (inflammatory pain), C57Bl6 mice
Assay: Carrageenan injection inflammatory pain model, Von Frey paw withdrawal threshold
Format: in vivo
Conditions: celecoxib subcutaneous, 20 mg/kg, 24 h after carrageenan (D1)

In the case of `Cc1ccc(-c2cc(C(F)(F)F)nn2-c2ccc(S(N)(=O)=O)cc2)cc1` [celecoxib], the response threshold is reported as “increase in the response threshold”.

— patent US20250051395A1, “PEPTIDES AND METHODS FOR USE IN TREATING PAIN” (TAFALGIE THERAPEUTICS, priority 2021, published 2025)
